# Measured values from the supplement of paper PMC10849652.
# Protein sequences, listed by entry. Tags and fused reporters are not part of them. Lines headed by an entry give the natural chain unless they say otherwise; changes in a name come on top.
# UniProt P62995: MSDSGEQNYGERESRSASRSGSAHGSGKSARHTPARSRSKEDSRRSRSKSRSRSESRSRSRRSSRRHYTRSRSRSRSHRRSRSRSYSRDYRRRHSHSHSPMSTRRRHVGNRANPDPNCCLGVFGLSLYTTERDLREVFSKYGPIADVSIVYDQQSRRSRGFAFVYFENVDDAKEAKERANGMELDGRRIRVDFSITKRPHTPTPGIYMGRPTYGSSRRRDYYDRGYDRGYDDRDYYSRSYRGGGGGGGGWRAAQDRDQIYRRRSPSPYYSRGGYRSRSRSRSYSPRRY
# UniProt Q9P0T7: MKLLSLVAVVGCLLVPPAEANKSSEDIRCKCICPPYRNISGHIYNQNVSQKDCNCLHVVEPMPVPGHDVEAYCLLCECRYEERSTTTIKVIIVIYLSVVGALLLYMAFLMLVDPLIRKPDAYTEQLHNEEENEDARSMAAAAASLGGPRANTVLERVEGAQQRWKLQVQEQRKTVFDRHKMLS
# UniProt Q15025: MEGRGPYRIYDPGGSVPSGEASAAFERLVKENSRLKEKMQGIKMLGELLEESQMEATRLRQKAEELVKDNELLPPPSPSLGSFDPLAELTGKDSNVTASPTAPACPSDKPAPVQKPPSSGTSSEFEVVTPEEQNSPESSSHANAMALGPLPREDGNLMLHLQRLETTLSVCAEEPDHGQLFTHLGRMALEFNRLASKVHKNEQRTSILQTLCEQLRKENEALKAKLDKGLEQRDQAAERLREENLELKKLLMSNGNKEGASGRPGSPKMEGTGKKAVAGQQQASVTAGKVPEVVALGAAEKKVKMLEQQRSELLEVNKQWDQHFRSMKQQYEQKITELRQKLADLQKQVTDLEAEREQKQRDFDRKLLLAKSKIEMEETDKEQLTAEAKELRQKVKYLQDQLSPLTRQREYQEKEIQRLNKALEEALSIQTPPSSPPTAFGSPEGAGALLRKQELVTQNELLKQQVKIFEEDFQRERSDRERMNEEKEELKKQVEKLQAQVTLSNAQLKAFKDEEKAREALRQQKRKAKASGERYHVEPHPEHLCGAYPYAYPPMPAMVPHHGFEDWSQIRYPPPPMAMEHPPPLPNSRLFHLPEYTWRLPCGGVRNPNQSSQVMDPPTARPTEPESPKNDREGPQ
# UniProt Q96S44: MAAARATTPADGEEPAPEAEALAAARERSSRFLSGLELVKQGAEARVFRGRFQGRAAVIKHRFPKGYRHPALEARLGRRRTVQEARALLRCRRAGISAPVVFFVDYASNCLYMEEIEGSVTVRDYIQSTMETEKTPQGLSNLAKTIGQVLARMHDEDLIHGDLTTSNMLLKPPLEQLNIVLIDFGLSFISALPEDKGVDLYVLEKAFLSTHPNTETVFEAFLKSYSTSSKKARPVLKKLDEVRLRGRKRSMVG
# UniProt Q8N9V7: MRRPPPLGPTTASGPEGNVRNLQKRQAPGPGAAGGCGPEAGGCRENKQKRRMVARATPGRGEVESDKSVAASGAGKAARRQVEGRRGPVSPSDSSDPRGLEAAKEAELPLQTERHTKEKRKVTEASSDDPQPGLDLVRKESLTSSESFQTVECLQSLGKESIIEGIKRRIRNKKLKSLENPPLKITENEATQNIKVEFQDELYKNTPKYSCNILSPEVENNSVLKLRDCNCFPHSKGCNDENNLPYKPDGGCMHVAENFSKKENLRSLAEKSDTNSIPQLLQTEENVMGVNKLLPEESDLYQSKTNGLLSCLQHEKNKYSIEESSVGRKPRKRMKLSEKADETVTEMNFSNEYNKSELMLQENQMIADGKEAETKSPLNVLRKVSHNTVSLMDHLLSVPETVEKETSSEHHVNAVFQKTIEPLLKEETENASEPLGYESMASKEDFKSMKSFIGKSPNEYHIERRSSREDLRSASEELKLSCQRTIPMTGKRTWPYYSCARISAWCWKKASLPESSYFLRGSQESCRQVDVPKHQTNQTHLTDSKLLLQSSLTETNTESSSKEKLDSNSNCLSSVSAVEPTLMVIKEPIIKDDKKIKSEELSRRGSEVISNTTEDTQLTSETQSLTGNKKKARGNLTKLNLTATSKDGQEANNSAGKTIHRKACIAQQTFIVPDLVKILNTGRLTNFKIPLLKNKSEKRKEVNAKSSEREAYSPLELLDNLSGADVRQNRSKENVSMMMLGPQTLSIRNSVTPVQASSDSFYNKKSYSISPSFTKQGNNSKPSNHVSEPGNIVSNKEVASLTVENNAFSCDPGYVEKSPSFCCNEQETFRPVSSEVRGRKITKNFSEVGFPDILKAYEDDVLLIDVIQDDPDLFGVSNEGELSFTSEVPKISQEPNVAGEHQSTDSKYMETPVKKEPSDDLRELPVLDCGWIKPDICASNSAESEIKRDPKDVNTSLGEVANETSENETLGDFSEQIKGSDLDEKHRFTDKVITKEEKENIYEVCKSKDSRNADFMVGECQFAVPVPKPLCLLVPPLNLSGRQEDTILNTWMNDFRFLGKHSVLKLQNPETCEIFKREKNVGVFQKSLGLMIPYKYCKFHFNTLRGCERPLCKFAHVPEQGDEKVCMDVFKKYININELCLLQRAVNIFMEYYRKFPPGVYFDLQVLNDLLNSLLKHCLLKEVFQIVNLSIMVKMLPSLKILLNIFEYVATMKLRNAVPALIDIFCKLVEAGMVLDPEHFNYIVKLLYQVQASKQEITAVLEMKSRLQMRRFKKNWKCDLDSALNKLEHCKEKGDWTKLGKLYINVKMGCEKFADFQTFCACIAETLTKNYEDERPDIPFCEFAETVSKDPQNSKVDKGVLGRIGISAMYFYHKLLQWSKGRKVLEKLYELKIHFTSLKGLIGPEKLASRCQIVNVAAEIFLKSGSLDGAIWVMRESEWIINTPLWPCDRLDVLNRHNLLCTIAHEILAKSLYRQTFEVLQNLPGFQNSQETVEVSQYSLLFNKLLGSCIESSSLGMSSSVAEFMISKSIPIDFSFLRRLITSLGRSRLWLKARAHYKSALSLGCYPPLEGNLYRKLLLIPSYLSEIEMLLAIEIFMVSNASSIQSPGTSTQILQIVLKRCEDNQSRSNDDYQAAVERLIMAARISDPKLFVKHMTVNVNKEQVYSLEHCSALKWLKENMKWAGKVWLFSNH
# UniProt Q9H3S4: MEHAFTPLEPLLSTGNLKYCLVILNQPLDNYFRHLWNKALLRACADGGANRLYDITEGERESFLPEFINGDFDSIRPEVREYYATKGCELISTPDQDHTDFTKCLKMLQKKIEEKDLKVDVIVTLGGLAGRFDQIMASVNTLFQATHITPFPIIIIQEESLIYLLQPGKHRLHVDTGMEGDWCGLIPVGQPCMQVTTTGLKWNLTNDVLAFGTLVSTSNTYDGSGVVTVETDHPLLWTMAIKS
# UniProt Q96A57: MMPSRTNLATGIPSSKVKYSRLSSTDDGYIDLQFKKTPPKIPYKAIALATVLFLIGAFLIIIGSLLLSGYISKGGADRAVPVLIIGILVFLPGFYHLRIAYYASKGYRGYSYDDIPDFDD
# UniProt P06753, whole entry, looked up: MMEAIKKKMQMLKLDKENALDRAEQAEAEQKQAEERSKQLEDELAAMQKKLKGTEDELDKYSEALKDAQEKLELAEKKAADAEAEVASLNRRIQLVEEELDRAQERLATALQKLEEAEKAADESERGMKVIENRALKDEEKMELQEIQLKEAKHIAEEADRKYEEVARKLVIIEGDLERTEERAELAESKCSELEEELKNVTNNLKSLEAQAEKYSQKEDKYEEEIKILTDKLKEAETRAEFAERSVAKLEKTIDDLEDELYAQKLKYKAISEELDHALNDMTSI
# UniProt Q71RG4: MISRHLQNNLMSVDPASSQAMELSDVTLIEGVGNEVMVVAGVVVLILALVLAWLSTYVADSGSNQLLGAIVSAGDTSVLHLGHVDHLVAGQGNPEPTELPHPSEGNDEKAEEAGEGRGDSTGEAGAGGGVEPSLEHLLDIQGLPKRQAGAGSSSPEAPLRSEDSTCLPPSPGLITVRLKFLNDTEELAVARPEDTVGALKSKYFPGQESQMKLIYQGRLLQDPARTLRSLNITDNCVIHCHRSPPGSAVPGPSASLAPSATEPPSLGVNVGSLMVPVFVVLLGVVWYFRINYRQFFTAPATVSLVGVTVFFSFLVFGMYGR
# UniProt Q6ZT21: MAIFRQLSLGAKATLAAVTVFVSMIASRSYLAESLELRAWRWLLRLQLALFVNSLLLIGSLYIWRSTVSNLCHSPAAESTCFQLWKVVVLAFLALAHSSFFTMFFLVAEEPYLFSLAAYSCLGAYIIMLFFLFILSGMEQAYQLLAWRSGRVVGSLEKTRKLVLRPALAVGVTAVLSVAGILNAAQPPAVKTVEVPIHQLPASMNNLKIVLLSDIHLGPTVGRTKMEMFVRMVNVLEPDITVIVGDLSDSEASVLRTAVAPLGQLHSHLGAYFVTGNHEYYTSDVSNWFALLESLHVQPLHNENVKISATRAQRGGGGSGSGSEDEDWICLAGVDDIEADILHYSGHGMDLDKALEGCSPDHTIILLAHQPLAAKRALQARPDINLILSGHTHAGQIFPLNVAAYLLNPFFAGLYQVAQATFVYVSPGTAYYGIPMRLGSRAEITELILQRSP
# UniProt Q13595: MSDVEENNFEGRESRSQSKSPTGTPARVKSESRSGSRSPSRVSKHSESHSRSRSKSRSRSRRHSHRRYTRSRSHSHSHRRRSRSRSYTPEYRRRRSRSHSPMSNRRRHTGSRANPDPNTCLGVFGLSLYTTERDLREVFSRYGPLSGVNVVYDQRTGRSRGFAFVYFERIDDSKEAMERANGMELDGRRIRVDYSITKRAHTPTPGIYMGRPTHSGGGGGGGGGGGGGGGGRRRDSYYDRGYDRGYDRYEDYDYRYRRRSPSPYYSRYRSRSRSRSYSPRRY
# UniProt P02585, whole entry, looked up: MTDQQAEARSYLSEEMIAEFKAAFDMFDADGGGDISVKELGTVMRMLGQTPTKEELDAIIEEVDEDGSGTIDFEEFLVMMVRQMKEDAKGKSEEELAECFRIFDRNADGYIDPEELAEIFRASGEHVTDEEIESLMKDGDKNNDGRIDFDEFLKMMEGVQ
# UniProt Q9BVT8: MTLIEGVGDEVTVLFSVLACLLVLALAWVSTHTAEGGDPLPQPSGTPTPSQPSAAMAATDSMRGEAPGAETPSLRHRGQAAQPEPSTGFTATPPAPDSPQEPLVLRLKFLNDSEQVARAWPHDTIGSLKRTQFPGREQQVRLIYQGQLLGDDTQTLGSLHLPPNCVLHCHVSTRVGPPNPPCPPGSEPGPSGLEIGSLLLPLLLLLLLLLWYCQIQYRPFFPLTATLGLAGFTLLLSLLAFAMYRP
# UniProt Q9NZR1: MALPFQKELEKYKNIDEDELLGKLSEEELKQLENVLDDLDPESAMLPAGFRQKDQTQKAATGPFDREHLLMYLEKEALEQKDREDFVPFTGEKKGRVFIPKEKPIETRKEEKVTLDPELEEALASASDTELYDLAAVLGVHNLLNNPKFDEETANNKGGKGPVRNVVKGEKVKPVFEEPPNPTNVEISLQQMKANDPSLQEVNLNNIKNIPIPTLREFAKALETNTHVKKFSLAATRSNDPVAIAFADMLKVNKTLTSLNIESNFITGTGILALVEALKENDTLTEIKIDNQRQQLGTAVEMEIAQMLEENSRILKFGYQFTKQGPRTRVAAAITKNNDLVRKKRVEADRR
# UniProt Q9NS69: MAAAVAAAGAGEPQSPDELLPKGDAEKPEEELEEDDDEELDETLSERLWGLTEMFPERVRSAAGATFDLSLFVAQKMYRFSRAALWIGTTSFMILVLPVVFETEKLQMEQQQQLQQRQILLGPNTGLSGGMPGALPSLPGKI
# UniProt Q9HCN3: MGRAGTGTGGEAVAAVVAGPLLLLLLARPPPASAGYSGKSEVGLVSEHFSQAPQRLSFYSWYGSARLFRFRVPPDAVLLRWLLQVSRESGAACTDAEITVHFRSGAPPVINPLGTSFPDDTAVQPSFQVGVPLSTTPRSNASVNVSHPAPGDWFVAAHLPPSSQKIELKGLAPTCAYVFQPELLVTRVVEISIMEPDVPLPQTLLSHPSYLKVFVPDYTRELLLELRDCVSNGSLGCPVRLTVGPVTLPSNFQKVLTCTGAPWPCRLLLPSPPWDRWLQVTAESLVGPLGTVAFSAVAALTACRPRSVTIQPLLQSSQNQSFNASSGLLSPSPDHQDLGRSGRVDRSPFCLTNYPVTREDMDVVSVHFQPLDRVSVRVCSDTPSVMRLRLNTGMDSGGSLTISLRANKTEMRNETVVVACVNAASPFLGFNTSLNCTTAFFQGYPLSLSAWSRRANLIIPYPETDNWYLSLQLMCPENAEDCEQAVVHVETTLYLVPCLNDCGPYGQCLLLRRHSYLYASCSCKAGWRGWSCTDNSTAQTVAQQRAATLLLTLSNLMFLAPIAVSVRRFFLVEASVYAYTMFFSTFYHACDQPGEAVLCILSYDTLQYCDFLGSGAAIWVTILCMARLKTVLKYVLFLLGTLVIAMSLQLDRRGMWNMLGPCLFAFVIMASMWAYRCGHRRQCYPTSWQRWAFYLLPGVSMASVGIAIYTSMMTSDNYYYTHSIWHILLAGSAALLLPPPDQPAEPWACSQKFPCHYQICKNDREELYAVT
# UniProt Q96B49: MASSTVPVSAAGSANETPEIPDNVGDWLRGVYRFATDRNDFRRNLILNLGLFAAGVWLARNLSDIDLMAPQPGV
# The list shows a part of the results.
# Compound: C1COCCN1CCN2C3=CC=CC=C3N=C2NC(=O)C4=CC(=CC=C4)[N+](=O)[O-] [IRAK-1-4 Inhibitor I]
# Experiment: log2 fold change, soluble protein after heating vs DMSO (PISA); higher = thermal stabilisation; K562 lysate, 10 uM; active = over 0.2 and 3.5 SD of the protein, either way, in both replicates (recomputed)
# Method in brief: (§1)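 Dounce homogenisation of K562 pellets in PBS pH 7.4 with 1 mM MgCl2 produced a crude extract, used at 1 mg/mL protein. Exposure to 10 μM compound lasted 30 min, and aliquots were then heated for 3 min across 48°C-58°C, pooled and brought to 0.5% NP-40 at 4°C. The supernatant after 21,000xg for 90 min was quantified by TMTpro 16plex LC-MS/MS with channel sums equalised. Duplicate values are given as log-two fold change in thermal stability relative to solvent controls.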
row,Target,log2 fold change
1,TRA2B (UniProt P62995),inactive: 0.029
2,TMEM9 (UniProt Q9P0T7),inactive: 0.005
3,TNIP1 (UniProt Q15025),inactive: 0.014
4,TP53RK (UniProt Q96S44),inactive: -0.008
5,TOPAZ1 (UniProt Q8N9V7),inactive: -0.07
6,TPCN1 isoform 3 (UniProt Q9ULQ1),inactive: 0.04
7,TMEM19 (UniProt Q96HH6),inactive: 0.006
8,TPM1 (UniProt H7BYY1),inactive: -0.071
9,TPK1 (UniProt Q9H3S4),inactive: -0.013
10,TMEM230 isoform 2 (UniProt Q96A57),inactive: 0.032
11,TPM3 (UniProt P06753),inactive: -0.019
12,TMUB2 (UniProt Q71RG4),inactive: 0.06
13,TMEM248 (UniProt Q9NWD8),inactive: 0.137
14,TMPPE (UniProt Q6ZT21),inactive: 0.016
15,TRA2A (UniProt Q13595),inactive: -0.102
16,TNNC2 (UniProt P02585),inactive: -0.016
17,TNKS (UniProt O95271),inactive: -0.073
18,TMEM94 isoform 2 (UniProt Q12767),inactive: 0.16
19,TMUB1 (UniProt Q9BVT8),inactive: -0.096
20,TMOD2 (UniProt Q9NZR1),inactive: 0.054
21,TPRG1L (UniProt Q5T0D9),inactive: -0.073
22,TMX4 (UniProt Q9H1E5),inactive: -0.04
23,TMEM35B (UniProt Q8NCS4),inactive: -0.071
24,TPM3 isoform 3 (UniProt P06753),inactive: -0.016
25,TOMM22 (UniProt Q9NS69),inactive: 0.004

# Compound: C=CC(=O)N1CCC[C@@H](n2nc(-c3ccc(Oc4ccccc4)cc3)c3c(N)ncnc32)C1 [ibrutinib]
# Experiment: as above
# Method in brief: as §1
row,Target,log2 fold change
1,TRA2B (UniProt P62995),inactive: 0.017
2,TMEM9 (UniProt Q9P0T7),inactive: 0.017
3,TNIP1 (UniProt Q15025),inactive: 0.074
4,TP53RK (UniProt Q96S44),inactive: 0.02
5,TOPAZ1 (UniProt Q8N9V7),inactive: -0.086
6,TPCN1 isoform 3 (UniProt Q9ULQ1),inactive: -0.046
7,TNRC6A (UniProt Q8NDV7),inactive: 0.006
8,TPM1 (UniProt H7BYY1),inactive: -0.002
9,TPK1 (UniProt Q9H3S4),inactive: 0.193
10,TMEM8A (UniProt Q9HCN3),inactive: 0.267
11,TMEM230 isoform 2 (UniProt Q96A57),inactive: 0.015
12,TPM3 (UniProt P06753),inactive: 0.009
13,TOMM6 (UniProt Q96B49),inactive: 0.12
14,TMUB2 (UniProt Q71RG4),inactive: 0.053
15,TOR1AIP1 (UniProt Q5JTV8),inactive: -0.064
16,TOM1 (UniProt O60784),inactive: 0.043
17,TMPPE (UniProt Q6ZT21),inactive: 0.035
18,TRA2A (UniProt Q13595),inactive: 0.127
19,TNIP2 (UniProt Q8NFZ5),inactive: 0.114
20,TNIK (UniProt C9J338),inactive: 0.041
21,TMEM94 isoform 2 (UniProt Q12767),inactive: -0.111
22,TMUB1 (UniProt Q9BVT8),inactive: 0.032
23,TMOD2 (UniProt Q9NZR1),inactive: -0.049
24,TMX4 (UniProt Q9H1E5),inactive: -0.029
25,TOMM22 (UniProt Q9NS69),inactive: -0.034

# Compound: CC(=O)c1cnc2ccc(-c3cc(Cl)c(O)c(Cl)c3)nc2c1N[C@H]1CC[C@H](CN(C)C)CC1
# Experiment: as above
# Method in brief: as §1
row,Target,log2 fold change
1,TRA2B (UniProt P62995),inactive: -0.009
2,TMEM9 (UniProt Q9P0T7),inactive: -0.029
3,TNIP1 (UniProt Q15025),inactive: -0.076
4,TP53RK (UniProt Q96S44),inactive: -0.059
5,TOPAZ1 (UniProt Q8N9V7),inactive: 0.125
6,TPCN1 isoform 3 (UniProt Q9ULQ1),inactive: -0.007
7,TMEM19 (UniProt Q96HH6),inactive: 0.032
8,TNRC6A (UniProt Q8NDV7),inactive: 0.007
9,TPM1 (UniProt H7BYY1),inactive: -0.018
10,TPK1 (UniProt Q9H3S4),inactive: 0.01
11,TMEM8A (UniProt Q9HCN3),inactive: -0.015
12,TMEM230 isoform 2 (UniProt Q96A57),inactive: -0.012
13,TPM3 (UniProt P06753),inactive: -0.001
14,TMUB2 (UniProt Q71RG4),inactive: 0.094
15,TOR1AIP1 (UniProt Q5JTV8),inactive: 0.02
16,TOM1 (UniProt O60784),inactive: -0.069
17,TMPPE (UniProt Q6ZT21),inactive: -0.001
18,TRA2A (UniProt Q13595),inactive: -0.018
19,TNIP2 (UniProt Q8NFZ5),inactive: -0.028
20,TNNC2 (UniProt P02585),inactive: -0.031
21,TNKS (UniProt O95271),inactive: 0.038
22,TNIK (UniProt C9J338),inactive: -0.076
23,TMEM94 isoform 2 (UniProt Q12767),inactive: -0.138
24,TMUB1 (UniProt Q9BVT8),inactive: 0.048
25,TMOD2 (UniProt Q9NZR1),inactive: -0.027
26,TPRG1L (UniProt Q5T0D9),inactive: 0.077
27,TMEM35B (UniProt Q8NCS4),inactive: 0.051
28,TPM3 isoform 3 (UniProt P06753),inactive: 0.066
29,TOMM22 (UniProt Q9NS69),inactive: -0.015
